# The list shows a part of the results. Values are raw readings; no control value is given beside them.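 Primary screen: polymyxin B was added at a level permeabilizing Salmonella outer membranes while sparing inner membranes. DMSO wells, both with and without polymyxin B, established maximum growth. Plate-to-plate variation meant each plate was ranked on its own, and the lowest-OD600 compounds were selected as hits.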
# System: Salmonella enterica serovar Typhimurium SL1344
# Test: bacterial growth OD600 after 18 h with compound and polymyxin B; higher = more bacterial growth (less inhibition)
# Details: 50 µM, Mueller-Hinton broth
SMILES,bacterial growth OD600 (polymyxin B 0.75 µg/mL),bacterial growth OD600 (polymyxin B 1 µg/mL)
COCCC1CCCCN1C(=O)CCc1nnc(CCc2ccccc2OC)o1 (stereo not given),0.84,–
CCn1cc(CNC2CCCc3nc(-c4cccnc4)ncc32)cn1 (stereo not given),–,0.925
CCCn1cc(CN2CCC(CO)(CCCc3ccccc3)CC2)c(C)n1,0.86,–
COc1ccccc1CC(=O)N(C)CC1CCCN(CCc2ccc(F)cc2)C1 (stereo not given),–,0.722
O=C(NC1CCCCCCC1)C1CCCN(C2CCN(C(=O)C3CC3)CC2)C1 (stereo not given),0.607,–
CCOc1ccccc1N1CCN(C(=O)CCC2(Cc3ccc(F)c(OC)c3)CCC(=O)N2)CC1 (stereo not given),0.81,–
O=C(C1CCCC1)N1CCC(C2CCN(Cc3cccnc3)CC2)C1 (stereo not given),0.987,–
Fc1ccc(CC2CCN(Cc3nc(COc4ccccc4)no3)CC2)cc1,–,0.825
CN(CC1(O)CCCN(Cc2cccc(F)c2F)C1=O)C1CCCCC1 (stereo not given),–,0.856
CCN(CC)C(=O)C1CCCN(Cc2ccc3c(c2)CN(Cc2ccc4nsnc4c2)CCO3)C1 (stereo not given),0.807,–
CC(CN1C(=O)CCC1CCNCc1cc2c(cc1Cl)OCO2)c1ccccc1 (stereo not given),0.795,–
C=C(C)CNc1ccc(C(=O)N2CCCCC2CCn2cccn2)cn1 (stereo not given),–,0.503
CC(=O)c1cc(C(=O)N2CCC(CCC(=O)Nc3ccccc3)CC2)cs1,–,0.915
O=C(NCc1c[nH]nc1-c1ccccc1)C1CCC(=O)N(CCCc2ccccc2)C1 (stereo not given),–,0.852
COc1cccc(CN2CCCC3(CCN(C(=O)c4ccc(OC)nc4OC)C3)C2)c1 (stereo not given),–,0.931
CCOC(=O)C1(Cc2cccc(OC)c2)CCN(Cc2cc(OC)ccc2OC)CC1,–,0.751
COCCN1CCC(CN(CC2CCCO2)C(=O)c2cc(-c3ccc(C)o3)n[nH]2)CC1 (stereo not given),–,0.722
Cc1ncc2c(c1CNC(=O)C1CCCO1)CCN(C(=O)c1ccc(F)cc1Cl)C2 (stereo not given),0.771,–
CCOC(=O)C1(Cc2ccc(F)cc2F)CCCN(C(=O)c2cc(C)n(C)n2)C1 (stereo not given),–,1.31
Cc1ccn2c(CNCCN3CCCCC3)c(C(=O)N3CCCCCC3)nc2c1,0.811,–
COc1ccc(CCNC(=O)C2CCN(c3nc(C)c4ccc(S(C)(=O)=O)cc4n3)CC2)cc1,0.847,–
Cc1nc(N2CCC(C(=O)NCC3CC4C=CC3C43CC3)CC2)nc2ccccc12 (stereo not given),0.87,–
Cc1cnc(CNC(=O)CC(c2ccccc2)c2ccccc2Cl)cn1 (stereo not given),–,0.819
CCN1CCCC(CN(C)c2nc3nonc3nc2NCCOC)C1 (stereo not given),–,0.838
Cc1cc(C(=O)NCC2CCCN(Cc3ccc(Sc4nncn4C)o3)C2)no1 (stereo not given),–,0.906
Cc1cc(C)n(CCC(=O)NCc2cccnc2Oc2ccccc2F)n1,–,0.927
CN(C(=O)CC(c1cccc(Cl)c1)c1ccccc1O)C1CCOCC1 (stereo not given),–,1.15
COc1cc(OC)nc(NCc2cccnc2N2CCOCC2)n1,–,0.815
CCCCn1c(CN2CCCCC2CCOC)cnc1S(=O)(=O)C1CCCCC1 (stereo not given),–,0.006
CC(C)=CC(=O)N1CCC2(CC1)CC2C(=O)NCc1cccc(C)n1 (stereo not given),0.95,–

# A section taken from the entries so far, for reference:
SMILES,bacterial growth OD600 (polymyxin B 0.75 µg/mL),bacterial growth OD600 (polymyxin B 1 µg/mL)
C=C(C)CNc1ccc(C(=O)N2CCCCC2CCn2cccn2)cn1 (stereo not given),–,0.503
CC(=O)c1cc(C(=O)N2CCC(CCC(=O)Nc3ccccc3)CC2)cs1,–,0.915
